Results of single-concentration screens

Data taken from ChEMBL document CHEMBL3988442, “University of Dundee, Small-Polar-MMV Screening Library” (2021).

Values are the deposited “Percent Effect”, in %.
The controls that fix the scale are not given in the record; negative values are as filed.
Compounds were drawn at random from those tested, without regard to their results.

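Whole-parasite assay of Trypanosoma brucei over 72 hours; the read-out is not stated. Concentration: 30 µM. Higher reads as stronger inhibition (inferred: compounds with an IC50 in retests scored well above the rest). Values scatter widely below zero; nearly all retest evidence comes from the higher of the two concentrations used. Size under these conditions: about 64,000 compounds, about 940 of them at 50% or above in at least one test.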

| compound | percent effect |
|---|---|
| `O=C(c1ccc[nH]1)N1CCC(c2nccn2Cc2ccncc2)CC1` | -78.4 |
| `O=C(O)C(F)(F)F.O=C(O)C(F)(F)F.[H][C@@]12CCN(Cc3ccccn3)C[C@]1([H])OCCN(c1ccccc1)C2=O` | -25.82 |
| `Cn1cc(NC(=O)Nc2ccc3c(c2)OCO3)cn1` | -24.2 |
| `COc1cccc(C(=O)N2CCc3c(nc(N)[nH]c3=O)C2)c1OC` | -24.19 |
| `CNC(=O)CCS(=O)(=O)Cc1coc(-c2ccc(F)cc2)n1` | 13.84 |
| `Cc1nn(C)cc1CN1CCC(c2ncc(Cl)cc2S(C)(=O)=O)CC1` | -15.66 |
| `CN(C)CCCNc1ncnc2cccc(F)c12` | -63.39 |
| `COc1cccc(CC(C)NC(=O)NC(C)C)c1` (stereo not drawn) | -22.7 |
| `COc1cccc(CN(C)CC(=O)NC2(C)CCS(=O)(=O)C2)c1` (stereo not drawn) | 10.52 |
| `Cc1cccc(O[C@H]2COCCN(C3CCOCC3)C2)n1` | 6.088 |
| `O=C(O)C1c2nc[nH]c2CCN1Cc1ccccc1-c1ccccc1` (stereo not drawn) | -81.76 |
| `CCOc1ccc2[nH]c(=O)c(CN3CCN(S(N)(=O)=O)CC3)cc2c1` | -18.93 |
| `Cc1ccc(S(=O)(=O)N2CCC3(CC(C(=O)NCC4CC4)=NO3)C2)cc1` (stereo not drawn) | -37.99 |
| `O=C(C1CCC1)N1CCC(C(=O)N2CCC(c3ccc(F)cc3)C2)CC1` (stereo not drawn) | -24.18 |
| `c1cncc(NCCNC2CSCCSC2)c1` | -60.67 |
| `O=C(CCc1nc(Cl)n[nH]1)N1CCC2(CCCN(CC3CCC3)C2=O)C1` (stereo not drawn) | -24.58 |
| `[H][C@@]12CS(=O)(=O)C[C@]1([H])N(C(=O)c1cc[nH]n1)CCN2CCC` | -27.84 |
| `O=C(O)C(F)(F)F.O=C(O)C(F)(F)F.O=C(O)C(F)(F)F.[H][C@@]12COC[C@]1(COCc1ccncc1)CN(Cc1ccccn1)C2` | 42.72 |
| `NC[C@H]1CC[C@H](C(NC(=O)CC2CCCC2)c2ccccn2)CC1` (stereo partly drawn) | -41.17 |
| `CCC(C)Nc1ccc(-c2nc(-c3cccc(OC)c3OC)no2)cn1` (stereo not drawn) | -30.1 |
| `Cc1ccc(NC(=O)CN2CCOCC2)c(F)c1` | -47.29 |
| `COc1cc(C)ccc1S(=O)(=O)N[C@H]1CN(C(C)=O)C[C@@H]1C1CC1` | -52.25 |
| `CC(C)CCN1CC[C@H](c2nnc(Cc3c[nH]c4ccccc34)o2)C1` | 3.007 |
| `CN(C(=O)c1ccc(NC(=O)c2cc[nH]n2)cc1)C1CCCCC1` | -20.02 |
| `Cc1ccc2c(c1)CCC21CCN(C(=O)CN(C)C)CC1.O=C(O)C(F)(F)F` | -4.328 |
| `[H][C@]12CC[C@]([H])(CN(C(=O)N(C)C)C1)N(Cc1ccc3nsnc3c1)C2` | -18.09 |
| `NC(=O)C1CCN(CCc2ccc(NC(=O)C3CCC3)cc2)CC1` | 46.11 |
| `[H][C@@]12C[C@@H](OCc3cccnc3)CN1CCN(C(=O)c1ccsc1)C2` | 18.77 |
| `O=C(NCCOCC(F)(F)F)c1ccc(-c2ccccc2)[nH]c1=O` | -20.05 |
| `CNc1nc(C)c(C(=O)N2CCCCC2CCc2ccc(O)cc2)s1` (stereo not drawn) | -15.34 |
| `CNc1ncccc1C(=O)N1CCc2c(nc(N)[nH]c2=O)C1` | -10.23 |
| `NC(=O)C1CCN(Cc2cc3c(cc2Br)OCCO3)C1` (stereo not drawn) | -26.48 |
| `CCN(C(=O)c1nc2c(s1)CCCN2C(C)=O)C(C)C` | -23 |
| `CCCC(=O)N(CC)C(c1cccnc1)c1ccc2c(c1)CCO2` (stereo not drawn) | -32.56 |
| `COC(=O)CCCNC(=O)Nc1ccccc1OC` | 6.506 |
| `Cn1nc2c(cc1=O)CN(Cc1nnc(C3CC3)o1)CC2` | -16.32 |
| `O=C(O)C(F)(F)F.[H][C@]12CCC[C@@]1(COc1ccccn1)CN(C(=O)c1ncccn1)C2` | 19.9 |
| `Cc1nc(CN2CCC3(CC2)NC(=O)CC3c2ccncc2)cs1.O=C(O)C(F)(F)F.O=C(O)C(F)(F)F` (stereo not drawn) | 15.3 |
| `CC(C)CNC(=O)N1CCOC2(CCNCC2)C1` | -0.7249 |
| `COc1ccc(/C=C/CN2CCCC3(C2)CN(C)C(=O)O3)cc1` (stereo not drawn) | -31.2 |
| `CC(=O)c1cnc(NCCN2CCCC(c3ccccc3)C2)nc1C` (stereo not drawn) | -13.12 |
| `CN1C[C@@H](NC(=O)C(C)(C)C)C[C@H]1C(=O)NCc1ncc[nH]1` | -7.768 |
| `COc1ccc(OC2CCN(C(=O)CCc3n[nH]c(C)n3)CC2)cc1` | 47.04 |
| `Cc1ccnc(NC(=O)CSCc2cccnc2)c1` | -14.57 |
| `[H][C@@]12C[C@H](C(=O)NC)[C@@]([H])(CN(C(=O)NCCc3ccccc3)C1)O2` | 33.74 |
| `CC(C)Nc1nc(C(=O)Nc2ccccn2)cs1` | -2.461 |
| `CCCNC(=O)c1cnc(N(C)C)nc1COC` | 21.27 |
| `O=C(O)C(F)(F)F.[H][C@@]12CCN(CCc3ccccc3)C[C@@]1([H])O[C@@H](C(=O)NCC1CC1)C2` | -24.45 |
| `NC(=O)CN1CCCN(C(=O)Cc2cccc(C(F)(F)F)c2)CC1` | -12.96 |
| `Cc1noc(CN(Cc2ccc3c(c2)OCO3)Cc2ccc(C)o2)n1` | -67.1 |
| `COc1c(C)cnc(CN2CCCC2c2noc(C3CC3)n2)c1C` (stereo not drawn) | -15.93 |
| `COC(=O)CC(NC(=O)c1cccc(N2CCCC2=O)c1)C(=O)OC` (stereo not drawn) | -4.411 |
| `CC(C)N(C)[C@@H]1CCN(S(C)(=O)=O)[C@H]1Cc1ccccc1` | -50.99 |
| `Oc1cc(CCC2CCCCN2)cc(-c2cccnc2)c1` (stereo not drawn) | -4.7 |
| `CCN(C)CC1CCN(C(=O)Nc2ccc(-c3csnn3)cc2)C1` (stereo not drawn) | -66.15 |
| `O=C(O)C(F)(F)F.O=C(O)C(F)(F)F.[H][C@@]12CN(Cc3ccoc3)C[C@]1([H])OCCN2c1ccc(C)nn1` | -40.93 |
| `CCc1cc(NCCCOC2CCN(C)CC2)ncn1` | -64.77 |
| `O=C(NCCCOC1CCOC1)NC(C1CC1)C1CC1` (stereo not drawn) | -59.91 |
| `O=C1CN(Cc2cn(C3CCN(C4CSCCSC4)CC3)nn2)CCN1` | -49.18 |
| `CN(C)C1CCN(C(=O)c2n[nH]c3c2CCN(CC2CCC2)C3)CC1` | -32.4 |
| `CN(Cc1ccsc1)C(=O)c1cccc(F)c1` | 11.09 |
| `O=C(Cc1ccc(F)cc1)NS(=O)(=O)c1ccc(F)c(F)c1` | -4.827 |
| `Cc1nc(C2CCCN2C(=O)CC2CCCC2)ncc1C(N)=O` (stereo not drawn) | 4.711 |
| `Cc1cc2nc(C(C)C)cc(NC(C)c3nncn3C3CCCC3)n2n1` (stereo not drawn) | -2.729 |
| `Cc1cccc2c1ccn2CCC(=O)Nc1c2c(nn1C)CSC2` | 26 |
| `CCN(CC)C(=O)CS(=O)(=O)c1cc(OC)c(OC)cc1C` | -38.06 |
| `Cc1csc(C2(NCc3ccc(OCC(F)F)cc3)CCCC2)n1` | 3.422 |
| `Cc1nccn1CC1CCCN(C(=O)c2cnn(C)c2)C1` (stereo not drawn) | -0.7471 |
| `Cc1ccc(CN2CCN(c3ncnc4[nH]cnc34)CC2CCO)cc1` (stereo not drawn) | -33.73 |
| `CC1(C)Cc2nc(C(C)(C)C)ncc2C(NC(=O)Cc2nnn[nH]2)C1` (stereo not drawn) | -11.39 |
| `CC(CNS(=O)(=O)c1cccc(Cl)c1)N1CCN(C)CC1` (stereo not drawn) | 4.834 |
| `CCc1cc(C(F)(F)F)c2c(C3CCN(C(=O)COC)CC3)noc2n1` | 11.66 |
| `[H][C@]12CC[C@@]3(N=C(C)N(C)C3=O)[C@@]1([H])CN(C(=O)Nc1ccc(F)cc1)C2` | -27.98 |
| `CC(Nc1cccc(CN2CCOC2=O)c1)C(=O)Nc1ccccc1` (stereo not drawn) | -1.45 |
| `CC(C)(C)C(N)c1nc(-c2nnc[nH]2)no1` (stereo not drawn) | 1.93 |
| `Cc1nc(N2CCCC(N3CCCC3)C2)c2cnn(C)c2n1` (stereo not drawn) | 50.19 |
| `COc1cccc(N2CCN(CCC(=O)NC3CCCCC3)CC2)c1` | 11.26 |
| `COc1ccc(S(=O)(=O)NCCCc2nnc3nc(C)cc(C)n23)cc1` | -49.6 |
| `Cc1ncsc1CCN(C)C(=O)c1ccc(Cn2cnnn2)cc1` | -24.24 |
| `O=C(O)C(F)(F)F.O=C(O)C(F)(F)F.O=C(O)C(F)(F)F.[H][C@@]12COC[C@]1(COc1cccnc1)CN(Cc1cccc(C)n1)C2` | -19.24 |
| `[H][C@]12CN(Cc3nc(C)c[nH]3)CC[C@@]1(O)CCN(C(=O)C1CCCC1)C2` | -101.6 |
| `CN(C)c1ncc(-c2ccc(F)cc2)c(C2CNCCO2)n1.Cl` (stereo not drawn) | 29.73 |
| `O=C(O)C(F)(F)F.O=c1cc(CNS(=O)(=O)C2CC2)nc2n1CCCN(CC1CC1)C2` | 5.014 |
| `Cc1ccn2cc(C(=O)N3CCCC3c3c(C)nn(C)c3C)nc2c1` (stereo not drawn) | 9.28 |
| `Cc1cc(N2CCOCC2)ccc1NC(C)c1nc(C(C)C)no1` (stereo not drawn) | -3.803 |
| `Cc1nc(N(CCC(N)=O)Cc2ccccc2)c2nc(C)oc2n1` | -56.19 |
| `CS(=O)(=O)CCCN1CCOC2(CCc3ccccc32)C1` (stereo not drawn) | -24.87 |
| `O=C(O)C(F)(F)F.[H][C@@]12CCC(=O)N(c3cnn(C)c3)[C@]1([H])CCN2Cc1nccs1` | -7.903 |
| `COc1ccc2nc3n(c2c1)[C@@H](CNC(=O)c1cncnc1)COC3` | -1.56 |
| `CS(=O)(=O)c1cncnc1C1CCCN(C(=O)Nc2ccc(F)cc2)C1` (stereo not drawn) | -19.05 |
| `COCCN1CCC2(CC1)CC(c1ccccc1)C(=O)N2C` (stereo not drawn) | -24.84 |
| `CCOC(=O)CSc1nnc(C(N)CC(C)C)o1.Cl` (stereo not drawn) | -36.19 |
| `CSCCCNC(=O)C(c1ccccc1C)N(C)C` (stereo not drawn) | 4.995 |
| `CC(NC(=O)NCc1cccc(N2CCCC2=O)c1)c1ccccc1` (stereo not drawn) | -28.82 |
| `Cn1cc(CN2CCCN(C(=O)c3cc(Cl)cn3C)CC2)cn1` | -71.49 |